According to US7998924B2 (The Trustees of The University of Pennsylvania, priority 2001, dated 2011):

Assay: peptide synthesis
Details: conjugation step, one disulfide bridge, sequence written open

GFCDGFYACYMDV-OH
conjugation yield: 7-10%
